## Percent effect of library compounds

The chains behind the UniProt entries cited, without tags or fusion partners. Residues count along the entry.
UniProt Q4DA54, 1-478: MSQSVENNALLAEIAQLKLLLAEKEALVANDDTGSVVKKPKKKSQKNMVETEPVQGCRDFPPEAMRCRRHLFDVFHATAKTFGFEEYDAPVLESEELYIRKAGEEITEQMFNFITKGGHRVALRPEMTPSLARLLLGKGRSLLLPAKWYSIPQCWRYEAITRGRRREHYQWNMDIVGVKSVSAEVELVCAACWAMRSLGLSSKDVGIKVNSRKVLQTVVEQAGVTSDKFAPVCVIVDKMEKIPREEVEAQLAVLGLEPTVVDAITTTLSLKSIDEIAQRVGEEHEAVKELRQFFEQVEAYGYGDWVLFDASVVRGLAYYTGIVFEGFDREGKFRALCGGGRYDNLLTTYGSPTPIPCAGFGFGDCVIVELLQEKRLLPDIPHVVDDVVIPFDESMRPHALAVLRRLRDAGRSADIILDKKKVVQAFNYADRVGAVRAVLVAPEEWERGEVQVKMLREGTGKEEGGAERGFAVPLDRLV
UniProt P9WNZ1, whole entry: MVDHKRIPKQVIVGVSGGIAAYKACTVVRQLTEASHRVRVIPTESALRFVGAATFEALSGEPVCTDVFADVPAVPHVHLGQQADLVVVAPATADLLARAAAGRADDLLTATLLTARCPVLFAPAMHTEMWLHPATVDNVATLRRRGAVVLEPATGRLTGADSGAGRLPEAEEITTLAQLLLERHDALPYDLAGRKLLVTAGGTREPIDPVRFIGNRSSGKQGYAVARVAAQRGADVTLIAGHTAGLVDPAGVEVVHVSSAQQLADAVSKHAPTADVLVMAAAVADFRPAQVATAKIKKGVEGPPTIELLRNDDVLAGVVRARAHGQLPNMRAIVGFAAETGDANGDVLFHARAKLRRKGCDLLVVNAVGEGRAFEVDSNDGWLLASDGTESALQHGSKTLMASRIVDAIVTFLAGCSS

From ChEMBL document CHEMBL3988442, “University of Dundee, Small-Polar-MMV Screening Library” (2021).

A: 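Enzyme assay of histidyl-tRNA synthetase; the read-out is not stated. Target: Histidine-tRNA ligase, Trypanosoma cruzi CL Brener (UniProt Q4DA54). Compounds at 30 µM. The record gives no direction; compounds that gave an IC50 in retests scored well above the rest, so higher reads as stronger inhibition. About 69,000 compounds were tested under these conditions; 0.045% (about 31) showed 50% or more at least once.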
B: 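Enzyme assay of CoaBC with a phosphate dye (Biomol Green) read at 650 nm. Target: Coenzyme A biosynthesis protein CoaBC, Mycobacterium tuberculosis (UniProt P9WNZ1). Tested at 30 µM. Higher reads as stronger inhibition, judged from the few compounds that gave an IC50. Most strong results did not repeat in a second test. About 67,000 compounds were tested under these conditions; 0.06% (about 40) showed 50% or more at least once.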

Results are given as percent effect. The controls that fix the scale are not given in the record; negative values are as filed. Compounds were drawn at random from those tested, without regard to their results. Two or more numbers in one place are separate tests of the same structure; such repeats can differ widely. A dash means the value is not listed here; it may have been measured.

Compound | A | B
Cc1nc2cc(CNC(=O)C3CC(=O)N(C4CCCC4)C3)ccc2n1C (stereo not given) | 6.931% | 1.574%
Cc1ccc(N2CCN(C(=O)CCc3ccc(O)cc3)CC2=O)cc1 | 2.146% | -4.187%
O=C(O)c1cc(-c2cn[nH]c2)cc(S(=O)(=O)N2CCSCC2)c1 | 8.108% | 3.846%
Cc1nc(CN2C[C@@H](CN3CCOCC3)[C@@H](CO)C2)c2ccccn12 | 1.948% | 11.97%
C[C@@H](O)CNC(=O)CCc1nc2cccnc2[nH]1 | 1.754% | 2.525%
Cc1cc(NC(=O)C2CN(Cc3ccccc3)CCO2)ccn1 (stereo not given) | 3.333% | 3.306%
CNC(=O)[C@H]1C[C@@H]2CN(S(=O)(=O)c3ccc(OC)cc3)C[C@@H]2N1C | 7.843% | 4.56%
CC(C)CS(=O)(=O)CC(=O)N1CCCC1c1noc(C2CC2)n1 (stereo not given) | -16.09% | 0.861%
O=C1CCC(=O)N1c1nn(Cc2ccccc2Cl)cc1Cl | 6.936% | 2.822%
CN(C)c1cc(CNC(=O)Nc2nccs2)ccn1 | 3.134% | -8.043%
CN(C)C(=O)COCC1CN(CC2CCOCC2)Cc2ncn(C)c21 (stereo not given) | 0% | 4.938%
Cc1ccc(OCc2occc2C(=O)O)cc1 | -8.036% | 3.145%
O=C(Cc1ccco1)N1CCC2(CCOCC2COCC2CC2)CC1 (stereo not given) | 4.854% | 0.2545%
Cc1ccc(CC(=O)N2CCCC(n3nc(C)cc3C)C2)cn1 (stereo not given) | 2.286% | 0%
CNC(=O)c1cnn2c(C3CCCN3C)ccnc12 (stereo not given) | 0.3759% | 5.361%
CCCc1nnc(SCC(=O)Nc2cc(C(C)(C)C)nn2C)[nH]1 | 0.9852% | 7.372%
CN1CCN([C@@H]2CCN(Cc3ccc4cc(F)ccc4n3)C[C@H]2O)CC1 | 9.091% | -55.46%
CC(C(=O)N1CCc2sccc2C1)N1CCC(N2CCCC2)CC1 (stereo not given) | -4.082% | 1.512%
CC(C1CC1)N(C)Cc1nnc(-c2ccco2)o1 (stereo not given) | 10.12% | 3.045%
Cc1cc(C(F)(F)F)nc(CCNC(C)Cn2ccnc2)n1 (stereo not given) | -58.42% | -0.9639%
O=C1OCCN1CCS(=O)(=O)c1cccc(Br)c1 | 2.632% | -
CC(C)n1[nH]c(=O)c2c1NC(=O)CC2c1cccc2cccnc12 (stereo not given) | -2.424% | 0.5109%
NC(=O)N1CC2(CCNCC2)c2cc(Cl)ccc21 | 2.256% | -0.2418%
COC1COC2(CCN(Cc3ccccc3Cl)CC2)C1 (stereo not given) | -4.918% | 5.249%
CN1C[C@H](O)[C@]2(CCN(Cc3ccc(OC(F)(F)F)cc3)C2)S1(=O)=O | 3.468% | -3.804%
Cc1cc(C(=O)N2CCC3(CC2)COCCN(c2cccnc2)C3)[nH]n1 | 6.135% | -
CN(C(=O)c1cccc(OCC(F)F)n1)c1ccc2c(c1)CCO2 | 2.521% | 3.226%
CNC(=O)CN(C)S(=O)(=O)c1c(Br)cc2[nH]c(=O)oc2c1Cl | 9.091% | 6.522%
Cc1ccc(S(=O)(=O)NC(=O)CCC2CCCO2)cc1 (stereo not given) | 3.198% | -17.11%
c1ccc2c(NC3CCc4ncnn4C3)ncnc2c1 (stereo not given) | 5.82% | -0.1988%
CCCn1ccnc1-c1nccn1CCn1cnnc1 | 12% | -0.4959%
CSc1ccsc1C(=O)NS(=O)(=O)c1ccc(F)cc1 | -0.9804% | 1.22%
CCC(=O)NS(=O)(=O)c1cccnc1Nc1cccc(Cl)c1Cl | 2.062% | -2.685%
O=c1[nH]c(CN2CCN(CC(F)(F)F)CC2)nc2ccccc12 | 8.621% | 6.483%
CCN1CCOC(CNCc2ccccc2OCc2ccccn2)C1 (stereo not given) | 4.545% | -5.843%
O[C@]12CCNC[C@H]1CN(c1ncccc1Cl)CC2 | 5.128% | 37.43% & 9.794%
Cc1nc(CN2CCCC2c2noc(C3CC3)n2)nc2ccccc12 (stereo not given) | 16.03% | 3.861%
O=C(NCc1ccc(-n2cncn2)nc1)c1cc(Cl)ccn1 | 3.015% | 0%
OCC(O)CSCc1cc(Cl)ccc1Cl (stereo not given) | 7.097% | 1.691%
Cc1nc(CN2C[C@@H]3CN(C(=O)c4cccn4C)C[C@@H]3C2=O)cs1 | 7.182% | 12.34%
Cn1ccnc1-c1cnn(CC(=O)Nc2ccnn2C)c1 | 0.6061% | 2.19%
CC(NC(=O)Cn1ccc2sccc2c1=O)c1ccccc1 (stereo not given) | 3.96% | 2.3%
CC(=O)NCC(=O)N1Cc2nccn2CC(Cn2cccn2)C1 (stereo not given) | 3.867% | 2.828%
Cc1ncc(C(=O)N2CCCCC2c2nc3cc(F)ccc3[nH]2)c(O)n1 (stereo not given) | 4.911% | 1.786%
Cc1cc(C[C@@H]2COC[C@@H]2NC(=O)CN2CCOC2=O)on1 | -0.5236% | 8.848%
Cc1ccc(C2(CN3CCN(Cc4cn(C)nc4C)CC3)CC2)cc1 | 6.061% | 11.34%
Cc1cc(NC(=O)C(C)Nc2cccc(COCc3ccco3)c2)on1 (stereo not given) | 12% | 1.453%
COc1cccc(CN2CCC3(CC2)CCN(c2ncc(C)cn2)C3)c1 | 9.677% | -7.4%
O=C(c1ccco1)N1CCC2(CC1)CCN(c1ncccn1)CC2 | 1.942% | 3.475%
O=C(O)COCC(=O)NC1CC2(CCCCC2)Oc2ccccc21 (stereo not given) | 0.7463% | -1.46%
O=C(Nc1cnccn1)[C@@H]1COC[C@H]2CN(c3ncc(F)cn3)C[C@H]21 | 6.135% | -
CC(=O)N1CCC(N2CC[C@H](c3nc4cc(F)ccc4o3)C2)CC1 | 3.483% | 6.876%
CSC(C)C(=O)N1CCN(CCO)CC1 (stereo not given) | 7.778% | 5.042%
CCc1nc(CN(C)C2CCN(CC(=O)N(C)C)C2)no1 (stereo not given) | 3.458% | 8.864%
Cc1cccc(C(=O)N2CCN(S(C)(=O)=O)[C@@H](C)C2)c1C | 3.306% | -1.493%
CC(C)NC(=O)N(Cc1cc(O)nc2ccccc12)C(C)C | 0.9901% | -0.9639%
O=S(=O)(NC1CCC2(CC1)OCCO2)c1ccccc1Br | 6.806% | -4.497%
O=C(C[C@H]1[C@H]2CN(Cc3ccsc3)C[C@@H]12)N1CCCC1 | 9.709% | 6.616%
COc1ccc([C@@H]2C[C@H](NC(C)=O)C[C@H](Cc3ccccc3)O2)cn1 | 4.469% | 3.085%
c1cnn(C2CN(Cc3nc(-c4ccsc4)no3)C2)c1 | -0.3802% | -0.7979%
O[C@H]1[C@H](n2cc(-c3cncnc3)nn2)c2ccccc2C12CCNCC2 | 7.407% | -21.5%
CN(C)CCN1CCOCC2(CCN(Cc3ccc[nH]3)CC2)C1 | 8.589% | -
CCC(CC)C(=O)N1CCCc2c(cnn2C)C1 | 6.061% | -5.519%
O=C(c1cccc(CN2CCCC2)c1)N1CCCC(n2cncn2)C1 (stereo not given) | 11.28% | 5.575%
Cc1nc(C2CCCNC2)nc2c1CCCN2Cc1ccccn1 (stereo not given) | 6.977% | 3.313%
CC(C)CNC(=O)CNc1c(NCc2ccncc2)c(=O)c1=O | -1.242% | 1.646%
CCCc1nc(N2CCCC3(CCNC3)C2)c2cnn(C)c2n1 (stereo not given) | 9.195% | -5.2%
COc1ccc(Br)cc1CN(C)c1nc2c(cnn2C)c(=O)[nH]1 | 3.448% | 4.912%
CCN1CCOC(CNCc2ccccc2OCc2ccncc2)C1 (stereo not given) | 5.539% | 8.593%
COc1cc(C)sc1C(=O)N1CCC(Nc2cccnc2)CC1 | 1.653% | 8.817%
Cc1nc(C2CCCN(C(=O)c3ccoc3)C2)no1 (stereo not given) | 1.994% | -4.826%